From patent US7427671 (US Dept. of Health and Human Services, dated 2008)
No constants are given. Whether binding was seen depends on the method and setting. Some entries that bind do so weakly or less than the wild type. Each block holds one molecule with its values, some of them ahead of it.

The chains behind the UniProt entries cited, without tags or fusion partners. Where a name states a change or a piece, a line headed by the entry shows the natural chain unless it says otherwise.
UniProt P16234: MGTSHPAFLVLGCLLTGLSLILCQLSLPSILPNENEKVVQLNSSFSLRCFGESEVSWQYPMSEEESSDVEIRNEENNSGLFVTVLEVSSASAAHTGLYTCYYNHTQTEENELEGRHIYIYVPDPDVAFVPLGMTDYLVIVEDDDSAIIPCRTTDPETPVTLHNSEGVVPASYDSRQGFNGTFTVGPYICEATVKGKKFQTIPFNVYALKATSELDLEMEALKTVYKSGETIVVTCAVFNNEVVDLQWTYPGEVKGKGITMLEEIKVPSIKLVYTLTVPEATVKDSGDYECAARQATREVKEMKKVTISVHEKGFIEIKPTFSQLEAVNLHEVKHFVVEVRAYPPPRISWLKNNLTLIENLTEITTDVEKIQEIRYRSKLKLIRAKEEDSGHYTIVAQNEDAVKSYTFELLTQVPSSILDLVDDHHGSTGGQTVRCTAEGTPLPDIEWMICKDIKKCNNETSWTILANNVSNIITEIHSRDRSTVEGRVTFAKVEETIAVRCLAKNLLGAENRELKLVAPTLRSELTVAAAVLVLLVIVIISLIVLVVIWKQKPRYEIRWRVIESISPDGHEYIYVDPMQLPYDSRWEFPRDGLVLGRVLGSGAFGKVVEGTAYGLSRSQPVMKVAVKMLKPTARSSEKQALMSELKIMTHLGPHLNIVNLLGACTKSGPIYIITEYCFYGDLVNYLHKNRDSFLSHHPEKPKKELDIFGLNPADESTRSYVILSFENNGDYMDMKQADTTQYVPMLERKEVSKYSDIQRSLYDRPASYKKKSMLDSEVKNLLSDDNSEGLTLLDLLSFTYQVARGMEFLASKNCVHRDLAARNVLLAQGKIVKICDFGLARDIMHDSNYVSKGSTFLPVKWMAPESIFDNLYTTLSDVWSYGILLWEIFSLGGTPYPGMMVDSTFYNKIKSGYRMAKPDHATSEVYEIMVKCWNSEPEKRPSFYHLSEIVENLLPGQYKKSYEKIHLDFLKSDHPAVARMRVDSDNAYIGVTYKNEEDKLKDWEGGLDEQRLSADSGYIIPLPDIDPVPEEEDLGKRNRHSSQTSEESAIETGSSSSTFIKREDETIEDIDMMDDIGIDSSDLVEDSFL

What was measured:
[1] = target: human type α platelet derived growth factor receptor (T11 gene product) (human) (UniProt P16234); experiment: ^125I-human PDGF binding to transfected COS-1 cells (FIG. 8)
[2] = target: human type α platelet derived growth factor receptor (T11 gene product) (human) (UniProt P16234); experiment: ^125I-human PDGF binding to transfected COS-1 cells
[3] = target: human type α platelet derived growth factor receptor (T11 gene product) (human) (UniProt P16234); experiment: competition of ^125I-human PDGF binding to transfected COS-1 cells
[4] = target: human type α platelet derived growth factor receptor (T11 gene product) (human) (UniProt P16234); experiment: competition of ^125I-human PDGF binding to COS-1 cells transfected with T11 cDNA; 50-100 fold excess
[5] = target: human type α platelet derived growth factor receptor (T11 gene product) (human) (UniProt P16234); experiment: radioligand binding to 32D transfectants

- binding [1]: binds
- binding [2]: binds
Molecule: human PDGF isolated from human platelets (predominantly AB heterodimer) (from UniProt P04085 87-196; P01127 82-190) (ligand)

- binding [3]: binds
- binding [4]: binds
Molecule: recombinant PDGF-AA (from UniProt P04085 87-211) (ligand)

B1: recombinant PDGF-BB (ligand, UniProt P01127 82-190, looked up)
chain: SLGSLTIAEPAMIAECKTRTEVFEISRRLIDRTNANFLVWPPCVEVQRCSGCCNNRNVQCRPTQVQLRPVQVRKIEIVRKKPIFKKATVTLEDHLACKCETVAAARPVT
notes: Homodimer of B chains; also called BB homodimer
- binding [3]: binds
- binding [5]: binds
- binding [4]: binds
